Test results: US7741479B2, “Urea inhibitors of MAP kinases” (Locus Pharmaceuticals, Inc., priority 2004, dated 2010)
Some entries share one result that the patent states for a list of compounds.

Amino acid sequences for entries named in this document (tags omitted).
UniProt Q16539, whole entry: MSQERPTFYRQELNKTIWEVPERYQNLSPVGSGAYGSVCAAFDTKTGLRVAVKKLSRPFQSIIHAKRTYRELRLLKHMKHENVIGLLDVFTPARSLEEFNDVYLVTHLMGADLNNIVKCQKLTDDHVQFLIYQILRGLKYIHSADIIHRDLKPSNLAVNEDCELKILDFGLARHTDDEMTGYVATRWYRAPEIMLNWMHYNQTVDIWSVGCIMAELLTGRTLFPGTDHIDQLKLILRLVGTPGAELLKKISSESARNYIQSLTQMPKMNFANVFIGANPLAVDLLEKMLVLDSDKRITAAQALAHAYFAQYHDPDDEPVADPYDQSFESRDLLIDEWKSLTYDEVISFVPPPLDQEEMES

Molecular target: T1, p38 (Homo sapiens, UniProt Q16539)
T1 construct: made in house
Assay: Protein Kinase Assay (33P incorporation from γ-[33P]ATP into GST-ATF-2 substrate)
Format: biochemical
Settings: tested at 3 μM according to the procedure described above
Description: Human non-activated p38 kinase (MW=43 kDa) was purified according to the protocol described herein. Chemicals were purchased from Calbiochem. Fluorescence characterizations were conducted using a Cary Eclipse (Varian Analytical Instruments, Walnut Creek, Calif.). Research-grade CM5 sensor chips and coupling reagents (N-ethyl-N′-dimethylaminopropylcarbodiimide (EDC) N-hydroxysuccinimide (NHS), and 1 M ethanolamine HCl, pH 8.5) were purchased from Biacore AB (Uppsala, Sweden). The biosensor analyses were conducted using a Biacore 3000 SPR instrument. The kinetic analyses were carried on a Molecular Devices spectrophotometer (Molecular Devices Corporation, CA, USA).
Protein Kinase Assay. The protein kinase activity of p38 was determined by measuring the incorporation of ^33P from γ-[^33P]ATP into the GST-ATF-2 substrate, amino acids 19-96 (Upstate, NY USA). […] Compounds were preincubated with 10 nM p38 for 20 min at 30° C.; the reactions were initiated by the addition of GST-ATF2 and ATP and incubated for 70 min at 30° C. before being stopped by the addition of 10 μL of 600 mM phosphoric acid. The phosphorylated substrate was captured on phosphocellulose 96-well plate (Millipore MAPHNOB 10), washed with 100 mM phosphoric acid, and counted in a BeckmenCoulter LS6500 liquid scintillation counter.

| Structure (SMILES) | protein kinase inhibition |
| --- | --- |
| CC(C)(C)c1cc(C(=O)N2CCNS(=O)(=O)CC2)c(NC(=O)Nc2ccc(C#N)c(Cl)c2)s1 [Example 106, 1-[5-tert-Butyl-3-(1,1-dioxo-1λ^6-[1,2,5]thiadiazepane-5-carbonyl)thiophen-2-yl]-3-(3-chloro-4-cyanophenyl)urea] | 76-100% |
| CC(C)(C)c1cc(C(=O)N2CCNC(=O)CC2)c(NC(=O)Nc2ccc(C#N)c(Cl)c2)s1 [Example 116, 1-[5-tert-Butyl-3-(5-oxo[1,4]diazepane-1-carbonyl)thiophen-2-yl]-3-(3-chloro-4-cyanophenyl)urea] | 76-100% |
